This experiment has as its target GRK2-phosphorylated CCR5 (human) (UniProt P51681). Nature of the experiment: negative-stain EM.

Chains of the proteins cited; added tags and fusions are not shown.
UniProt P51681: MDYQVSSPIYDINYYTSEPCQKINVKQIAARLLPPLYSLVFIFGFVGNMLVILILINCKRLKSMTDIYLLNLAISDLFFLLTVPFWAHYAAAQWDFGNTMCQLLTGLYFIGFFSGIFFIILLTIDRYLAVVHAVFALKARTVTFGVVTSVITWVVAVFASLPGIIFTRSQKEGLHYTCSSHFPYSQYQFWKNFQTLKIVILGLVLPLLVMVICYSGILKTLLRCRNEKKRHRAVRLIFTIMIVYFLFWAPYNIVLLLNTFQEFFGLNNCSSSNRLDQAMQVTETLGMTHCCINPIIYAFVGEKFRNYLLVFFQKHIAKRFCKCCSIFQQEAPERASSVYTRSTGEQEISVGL

These are yes or no findings as the source states them, for the method shown. Some entries that bind do so weakly or less than the wild type.

Data on one molecule can be found in publication doi:10.1101/2022.10.10.511578 (bioRxiv, 2022).

B1: arrestin2^1-393 (domain or fragment)
chain: MGDKGTRVFKKASPNGKLTVYLGKRDFVDHIDLVDPVDGVVLVDPEYLKERRVYVTLTCAFRYGREDLDVLGLTFRKDLFVANVQSFPPAPEDKKPLTRLQERLIKKLGEHAYPFTFEIPPNLPCSVTLQPGPEDTGKACGVDYEVKAFLAENLEEKIHKRNSVRLVIRKVQYAPERPGPQPTAETTRQFLMSDKPLHLEASLDKEIYYHGEPISVNVHVTNNTNKTVKKIKISVRQYADIVLFNTAQYKVPVAMEEADDTVAPSSTFSKVYTLTPFLANNREKRGLALDGKLKHEDTNLASSTLLREGANREILGIIVSYKVKVKLVVSRGGLLGDLASSDVAVELPFTLMHPKPKEEPPHREVPENETPVDTNLIELDTNDDDIVFEDFAR
Take B1: the binding result is listed as “binds”.
